PubChem BioAssay AID1159599, NIAID – 2016
Here is an unselected part of 756 reagents. Over the whole deposit, 130 (17%) were called active. 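Calls are two-sided: actives include siRNAs that raised the Tnf reporter as well as ones that lowered it.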 Reagents against one gene are numbered here. Not stated in the record: the amount of reagent.

Purpose: 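Mouse macrophage genes that control Tnf-alpha promoter output upon LPS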
Cell system: mouse RAW264.7 G9 macrophage reporter clone cells
Reagent: single siRNA against mouse genes
Duration: 48 to 72 h after siRNA transfection, LPS for the last 16 h
Challenge: LPS (Salmonella minnesota R595), 16 h before fixation; dose not stated
Measured: 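High-content imaging of red fluorescence driven by the Tnf promoter after LPS, background subtracted, scored per siRNA as a plate-wise median/MAD robust z-score, replicate mean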
Reading the numbers: Tnf reporter z-score: higher = stronger Tnf promoter reporter signal after LPS
Rule for the call: 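Called active if the mean z-score over replicates passes 1.5 in either direction, up or down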
Calls: active = strong change either way; inactive = little change

| target | reagent | Tnf reporter z-score, replicate mean | activity call |
| --- | --- | --- | --- |
| Fos | 1 | -1.11 | inactive |
| Fos | 2 | -0.74 | inactive |
| Fos | 3 | 1.07 | inactive |
| Fos | 4 | -0.502 | inactive |
| Fos | 5 | -0.604 | inactive |
| Fos | 6 | 0.0591 | inactive |
| Egr2 | 1 | -0.816 | inactive |
| Egr2 | 2 | -2.15 | active |
| Egr2 | 3 | -1.82 | active |
| Egr2 | 4 | -3.36 | active |
| Egr2 | 5 | -2.51 | active |
| Egr2 | 6 | -0.0976 | inactive |
| Itgam | 1 | 0.492 | inactive |
| Itgam | 2 | -0.547 | inactive |
| Itgam | 3 | 0.446 | inactive |
| Itgam | 4 | 0.345 | inactive |
| Itgam | 5 | -0.269 | inactive |
| Itgam | 6 | -1.11 | inactive |
| Akt3 | 1 | -0.632 | inactive |
| Akt3 | 2 | -0.356 | inactive |
| Akt3 | 3 | -1.45 | inactive |
| Akt3 | 4 | -0.0747 | inactive |
| Akt3 | 5 | -1.26 | inactive |
| Akt3 | 6 | -0.24 | inactive |
| Mapk1 | 1 | -0.843 | inactive |
| Mapk1 | 2 | -1.5 | inactive |
| Mapk1 | 3 | -1.51 | active |
| Mapk1 | 4 | -0.306 | inactive |
| Mapk1 | 5 | -0.0356 | inactive |
| Mapk1 | 6 | 0.0171 | inactive |
| Ptk2b | 1 | -0.137 | inactive |
| Ptk2b | 2 | 0.802 | inactive |
| Ptk2b | 3 | -0.583 | inactive |
| Ptk2b | 4 | -1.86 | active |
| Ptk2b | 5 | -0.534 | inactive |
| Ptk2b | 6 | -0.446 | inactive |
| Tbk1 | 1 | -0.114 | inactive |
| Tbk1 | 2 | 0.112 | inactive |
| Tbk1 | 3 | -0.149 | inactive |
| Tbk1 | 4 | 0.982 | inactive |
| Tbk1 | 5 | 0.0227 | inactive |
| Tbk1 | 6 | 1.23 | inactive |
| Atf7 | 1 | -0.447 | inactive |
| Atf7 | 2 | -1.56 | active |
| Atf7 | 3 | -1.26 | inactive |
| Atf7 | 4 | 0.0553 | inactive |
| Atf7 | 5 | -1.76 | active |
| Atf7 | 6 | -1.06 | inactive |

Called active, among the entries above:
| target | reagent | Tnf reporter z-score, replicate mean | activity call |
| --- | --- | --- | --- |
| Egr2 | 2 | -2.15 | active |
| Egr2 | 3 | -1.82 | active |
| Egr2 | 4 | -3.36 | active |
| Egr2 | 5 | -2.51 | active |
| Mapk1 | 3 | -1.51 | active |
| Ptk2b | 4 | -1.86 | active |
| Atf7 | 2 | -1.56 | active |
| Atf7 | 5 | -1.76 | active |
